# Experimental data: PubChem BioAssay AID1508597 (Cure First, 2020)
# Test: 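Genes whose silencing sensitises or protects ovarian cancer cells against rucaparib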 (primary screen)
# Cell system: human ovarian carcinoma lines grown from tumours: OCI-P5x (papillary serous) and OCI-C5x (clear cell)
# Reagents: siRNA pool against human genes, 1.25 pmol siRNA per well
# Duration: 72 h or 96 h, depending on the cell culture
# Conditions: rucaparib 20 µM (about IC30) or vehicle, present until read-out
# Rucaparib or vehicle: Rucaparib
# Cell line: OCI-C5x (clear cell)
# Read-out: 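ATP luminescence measured at 72 or 96 h according to the culture, then normalised and expressed as percent viability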
# Scale: viability, normalised: higher = more viable cells remaining
# Active means: 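Active when normalised viability falls below 80 percent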
# Meaning of the calls: active = viability under 80%; inactive = viability 80% or more
# Shown is a random part of the about 2,100 reagents, under one of the conditions tested. 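Calls flag viability under 80% in either arm, not effects specific to rucaparib; the reference for percent is not stated.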 A reagent listed more than once was tested more than once; the source does not tell the runs apart. Not stated in the record: the 100% reference.
Gene,technical replicate,"viability, normalised (%)",Call
TCF19,1,57.7,active
TCF19,2,73.9,active
TCF19,3,69.1,active
MYC,1,42,active
MYC,2,31.7,active
MYC,3,42.5,active
SSB,1,58.4,active
SSB,2,71.3,active
SSB,3,58.8,active
GSK3B,1,56.4,active
GSK3B,1,57.1,active
GSK3B,2,64.7,active
GSK3B,2,47,active
GSK3B,3,40.7,active
GSK3B,3,52.1,active
GTF2H5,1,68.8,active
GTF2H5,2,58.1,active
GTF2H5,3,56,active
LTK,1,62.6,active
LTK,2,56.2,active
LTK,3,45.4,active
MED16,1,58.7,active
MED16,2,40.9,active
MED16,3,38.7,active
PRKCH,1,45.4,active
PRKCH,2,55.8,active
PRKCH,3,61.2,active
PLCB1,1,54.1,active
PLCB1,2,60.1,active
PLCB1,3,60.9,active
FRMPD4,1,38.8,active
FRMPD4,2,40.8,active
FRMPD4,3,36,active
PARP2,1,44.5,active
PARP2,1,61,active
PARP2,2,53.8,active
PARP2,2,41.9,active
PARP2,3,33.9,active
PARP2,3,67.5,active
TDRD12,1,53.2,active
TDRD12,2,47.7,active
TDRD12,3,40.3,active
CRY2,1,45.4,active
CRY2,2,55.5,active
CRY2,3,56.4,active
NRG1,1,37.8,active
NRG1,2,31.4,active
NRG1,3,44.1,active
AK1,1,50,active
AK1,2,77.5,active
AK1,3,55.6,active
H4C6,1,48.2,active
H4C6,2,32.8,active
H4C6,3,52.3,active
ING2,1,53.7,active
ING2,2,46.9,active
ING2,3,46,active
RB1,1,49.6,active
RB1,2,35,active
RB1,3,36.4,active
MBD4,1,38.1,active
MBD4,1,45.3,active
MBD4,2,31.8,active
MBD4,2,35.4,active
MBD4,3,41.3,active
MBD4,3,38,active
MATK,1,50.2,active
MATK,1,60.4,active
MATK,2,76.3,active
MATK,2,59.4,active
MATK,3,66.1,active
MATK,3,60.6,active
PES1,1,56.1,active
PES1,2,51.9,active
PES1,3,51,active

Reformatted: results already given.
MYC, technical replicate 3
- viability, normalised (%): 42.5
- Call: active

SSB, technical replicate 1
- viability, normalised (%): 58.4
- Call: active

SSB, technical replicate 2
- viability, normalised (%): 71.3
- Call: active

SSB, technical replicate 3
- viability, normalised (%): 58.8
- Call: active

GSK3B, technical replicate 1
- viability, normalised (%): 56.4
- Call: active

GSK3B, technical replicate 1
- viability, normalised (%): 57.1
- Call: active

GSK3B, technical replicate 2
- viability, normalised (%): 64.7
- Call: active

GSK3B, technical replicate 2
- viability, normalised (%): 47
- Call: active

GSK3B, technical replicate 3
- viability, normalised (%): 40.7
- Call: active

GSK3B, technical replicate 3
- viability, normalised (%): 52.1
- Call: active
